Data source: PubChem BioAssay AID504791 (Drosophila RNAi Screening Center, 2011)
Purpose: 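Genes whose knock-down strengthens or weakens small-RNA reporter silencing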 (primary screen). Cells: Drosophila S2-derived reporter cells. Reagent: long dsRNA against Drosophila genes, about 150-250 ng dsRNA per well (siRNA assay); about 80-120 ng (miRNA assay). Time to read-out: about 5 days (siRNA assay); about 4 days (miRNA assay). Treatment: copper sulfate induction of reporters: 25 µM (siRNA assay); 200 mM stated (miRNA assay), 1-2 days before reading. Measured: 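Dual luciferase assay: Renilla to firefly signal ratio in each well, scaled to the mean ratio of its plate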. Call rule: 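First-pass picks had plate-scaled ratios over 1.5 for the siRNA assay, over 1.6 for the miRNA assay, or under 0.6; two distinct dsRNAs had to score alike on retest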.
The screen tested about 23,000 reagents; below is an unselected part of those that have a named target and a result. In the full data, 199 (0.86%) got an active call. 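Plate-scaled ratios behind the calls are not deposited; printed light signals are raw; many rows marked increased or decreased are still called inactive.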 A plus sign joins genes that one reagent is predicted to hit. Not stated in the record: the direction of the score.

predicted target,DRSC id,stable siRNA reporter change,miRNA reporter change,"stable assay Renilla, run 1 (luminescence)","stable assay firefly, run 1 (luminescence)",activity call
CG4502,DRSC02755,,,44400,1.69e5,inactive
CG4502,DRSC23237,,,3175,3.09e5,inactive
CG16772,DRSC02516,,,6735,4.03e5,inactive
RhoGEF3,DRSC08351,,,6955,3.02e5,inactive
RhoGEF3,DRSC08352,,,5979,3.18e5,inactive
CG42553,DRSC08356,,,5887,3.01e5,inactive
Drep4,DRSC03408,,,7687,5.39e5,inactive
haf,DRSC00381,,,7354,3.78e5,inactive
CG4707,DRSC04483,,,24813,1.18e6,inactive
SerT,DRSC04655,,,6487,3.74e5,inactive
CG18095,DRSC01948,,,7222,3.76e5,inactive
Saf6,DRSC00633,,,14823,4.04e5,inactive
d4,DRSC04881,,,11776,1.28e6,inactive
d4,DRSC22674,,,4775,5.27e5,inactive
CG14710,DRSC14933,,,7575,3.87e5,inactive
Rsf1,DRSC03423,,,7422,5.26e5,inactive
Rsf1,DRSC21953,,,9907,6.03e5,inactive
CG3735,DRSC04411,,,23828,1.11e6,inactive
Cad87A,DRSC16161,,,9030,5.75e5,inactive
Urod,DRSC07569,,,7558,4.77e5,inactive
PTPMT1,DRSC14235,,,5940,3.60e5,inactive
Lim3,DRSC02475,,,5999,3.83e5,inactive
Lim3,DRSC03363,,,5327,2.32e5,inactive
Lim3,DRSC22183,,,7620,3.14e5,inactive
Lim3,DRSC22650,,,3971,2.98e5,inactive
Lim3,DRSC23034,,,4543,2.72e5,inactive
Rfk,DRSC15454,,,8662,5.58e5,inactive
CG31041,DRSC13951,,,5495,3.51e5,inactive
Klp68D,DRSC11206,,,7970,4.15e5,inactive
Paics,DRSC20305,,,8644,5.48e5,inactive
AttB,DRSC06734,,,6691,3.76e5,inactive
hyd,DRSC16971,reporter ratio raised past the hit cutoff,,14571,5.54e5,active
ND-13B,DRSC10643,,,5611,4.31e5,inactive
Jheh2,DRSC06530,,,6520,3.24e5,inactive
pncr003:2L (retired record),DRSC22149,,,8918,5.97e5,inactive
HDAC11,DRSC14280,,,6819,3.39e5,inactive
CROT,DRSC14518,,,8197,4.86e5,inactive
CROT,DRSC14519,,,6270,4.39e5,inactive
CG7800,DRSC16315,,,6544,4.21e5,inactive
Fis1,DRSC07772,,,7150,3.90e5,inactive
CG9757,DRSC16557,,,6814,4.13e5,inactive
CG9757,DRSC21707,,,9334,5.11e5,inactive
kek1,DRSC03551,,,7810,3.92e5,inactive
alpha-Man-Ia,DRSC17642,,,4795,3.24e5,inactive
alpha-Man-Ia,DRSC18162,,,5827,4.14e5,inactive
alpha-Man-Ia,DRSC18163,,,6035,5.25e5,inactive
alpha-Man-Ia,DRSC18735,,,6152,4.54e5,inactive
alpha-Man-Ia,DRSC23100,,,4119,3.88e5,inactive
TfIIFalpha,DRSC12608,,,5991,3.54e5,inactive
CG4646,DRSC06876,reporter ratio raised past the hit cutoff,reporter ratio raised past the hit cutoff,7439,2.68e5,inactive
CG8765,DRSC11041,,,5455,2.59e5,inactive
CG8765,DRSC23043,reporter ratio raised past the hit cutoff,,1384,59901,inactive
CG4593,DRSC18374,,,5906,2.88e5,inactive
CG18327,DRSC06722,,,5875,3.60e5,inactive
Crys,DRSC03294,,,26797,4.38e5,inactive
Naa15-16,DRSC19440,,,5144,4.65e5,inactive
Naa15-16,DRSC22846,,,4039,3.82e5,inactive
crp,DRSC03515,,,7211,3.67e5,inactive
CG9674,DRSC11088,,,8479,3.18e5,inactive
CG9674,DRSC11089,,,7583,2.73e5,inactive
Sfmbt,DRSC02552,,,28367,5.01e5,inactive
Cyp4d14,DRSC18457,,,5507,3.41e5,inactive
Dlic,DRSC19824,,,8195,5.33e5,inactive
CG42703,DRSC03973,,,4131,3.79e5,inactive
CG12991,DRSC19511,,,5531,4.43e5,inactive
PDCD-5,DRSC09955,,,8514,4.54e5,inactive
Rad1 + Sws1,DRSC00778,,,7418,4.60e5,inactive
stmA,DRSC05120,,,4091,4.30e5,inactive
stmA,DRSC07593,,,5803,4.25e5,inactive
stmA,DRSC22179,,,10306,5.55e5,inactive
CG12698,DRSC19485,,,3720,3.62e5,inactive
CG32829,DRSC00961,,,4723,4.87e5,inactive
CG32829,DRSC22805,,,2799,2.88e5,inactive
CG3402,DRSC08567,,,11026,4.24e5,inactive
CG31370,DRSC21453,,,11353,6.45e5,inactive
Rx,DRSC03837,,,5868,3.64e5,inactive
Rx,DRSC04652,,,7282,5.02e5,inactive
CG31224,DRSC15272,,,3900,3.90e5,inactive
CG31224,DRSC16290,,,8563,3.64e5,inactive
CG5079,DRSC15713,,,4811,1.60e5,inactive
CG5079,DRSC23061,,,4240,2.57e5,inactive
betaTub65B,DRSC11393,,,6223,3.18e5,inactive
CG14005,DRSC02337,,,18081,4.55e5,inactive

Records above called active:
predicted target,DRSC id,stable siRNA reporter change,miRNA reporter change,"stable assay Renilla, run 1 (luminescence)","stable assay firefly, run 1 (luminescence)",activity call
hyd,DRSC16971,reporter ratio raised past the hit cutoff,,14571,5.54e5,active
